From paper PMC4586916
No constants are given. Whether binding was seen depends on the method and setting. Binding seen in cells or lysates may run through a third protein. Some results given as binding are weak or reduced against the parent protein; the word gives no strength. Each block holds one substance with its values, some of them ahead of it.

Chains of the proteins cited; added tags and fusions are not shown. Lines headed by an entry give the natural chain unless they say otherwise; changes in a name come on top. A line that says so, or that is headed by a name, gives the form on record, which may keep a tag or linker. Residues count along the entry.
UniProt Q92993: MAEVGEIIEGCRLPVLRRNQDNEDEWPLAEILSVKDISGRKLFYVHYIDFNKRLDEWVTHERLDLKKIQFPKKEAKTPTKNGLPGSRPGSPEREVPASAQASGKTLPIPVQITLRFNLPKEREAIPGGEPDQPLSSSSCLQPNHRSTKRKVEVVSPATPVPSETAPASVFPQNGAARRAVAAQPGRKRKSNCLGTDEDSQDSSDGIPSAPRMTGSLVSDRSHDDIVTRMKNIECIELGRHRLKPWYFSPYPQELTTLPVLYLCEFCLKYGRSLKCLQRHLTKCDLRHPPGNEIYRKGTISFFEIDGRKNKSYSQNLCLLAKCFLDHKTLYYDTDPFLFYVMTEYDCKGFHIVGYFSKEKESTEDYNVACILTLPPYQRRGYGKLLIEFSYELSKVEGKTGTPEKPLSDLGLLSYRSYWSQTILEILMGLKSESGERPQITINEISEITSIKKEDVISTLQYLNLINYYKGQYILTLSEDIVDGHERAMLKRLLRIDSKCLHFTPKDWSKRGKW
TIP60 construct F (C-terminus TIP60, excluding the chromo domain), fused to YFP: residues 66-513 of Q92993
TIP60−FLAG (Q92993-3, form named): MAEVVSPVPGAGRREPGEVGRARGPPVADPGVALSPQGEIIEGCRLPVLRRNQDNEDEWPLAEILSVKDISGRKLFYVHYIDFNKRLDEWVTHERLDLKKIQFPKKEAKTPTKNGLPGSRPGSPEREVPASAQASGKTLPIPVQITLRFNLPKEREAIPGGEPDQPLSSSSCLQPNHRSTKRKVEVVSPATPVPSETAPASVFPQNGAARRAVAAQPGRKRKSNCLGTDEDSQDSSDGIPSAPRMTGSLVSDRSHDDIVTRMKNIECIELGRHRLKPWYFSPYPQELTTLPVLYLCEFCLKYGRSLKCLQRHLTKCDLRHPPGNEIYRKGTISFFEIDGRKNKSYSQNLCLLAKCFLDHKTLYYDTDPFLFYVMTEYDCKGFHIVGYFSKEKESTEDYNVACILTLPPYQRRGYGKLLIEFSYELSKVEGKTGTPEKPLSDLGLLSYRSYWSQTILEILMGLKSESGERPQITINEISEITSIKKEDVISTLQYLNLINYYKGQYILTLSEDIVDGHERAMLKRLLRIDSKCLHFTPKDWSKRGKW
UniProt Q9UPP1, residues 37-1060: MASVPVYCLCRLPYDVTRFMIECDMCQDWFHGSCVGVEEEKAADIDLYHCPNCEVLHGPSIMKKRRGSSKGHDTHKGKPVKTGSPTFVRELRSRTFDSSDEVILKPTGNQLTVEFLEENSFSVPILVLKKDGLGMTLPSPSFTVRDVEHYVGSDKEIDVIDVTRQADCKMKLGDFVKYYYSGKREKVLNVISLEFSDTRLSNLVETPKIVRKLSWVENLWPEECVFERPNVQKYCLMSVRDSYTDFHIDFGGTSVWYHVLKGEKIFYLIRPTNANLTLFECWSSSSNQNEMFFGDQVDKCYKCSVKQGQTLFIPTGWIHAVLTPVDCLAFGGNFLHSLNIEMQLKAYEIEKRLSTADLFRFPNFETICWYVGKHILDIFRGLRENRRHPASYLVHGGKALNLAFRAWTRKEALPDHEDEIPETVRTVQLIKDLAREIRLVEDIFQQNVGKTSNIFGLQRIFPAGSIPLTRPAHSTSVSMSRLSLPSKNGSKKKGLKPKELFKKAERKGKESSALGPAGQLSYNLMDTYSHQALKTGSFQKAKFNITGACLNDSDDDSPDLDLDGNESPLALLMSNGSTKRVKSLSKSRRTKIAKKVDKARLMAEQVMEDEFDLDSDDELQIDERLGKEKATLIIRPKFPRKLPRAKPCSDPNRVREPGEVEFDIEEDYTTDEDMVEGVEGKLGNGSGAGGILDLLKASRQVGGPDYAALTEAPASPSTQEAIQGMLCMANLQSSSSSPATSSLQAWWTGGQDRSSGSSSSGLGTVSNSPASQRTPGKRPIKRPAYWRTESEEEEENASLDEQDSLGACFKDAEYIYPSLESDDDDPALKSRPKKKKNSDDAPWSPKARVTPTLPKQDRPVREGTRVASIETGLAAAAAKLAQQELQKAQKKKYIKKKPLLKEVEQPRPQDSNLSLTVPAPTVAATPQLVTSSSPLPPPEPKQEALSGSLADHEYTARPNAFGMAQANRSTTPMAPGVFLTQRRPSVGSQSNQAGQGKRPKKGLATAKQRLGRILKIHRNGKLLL

Key:
[1] = biological target: TIP60 construct F (C-terminus TIP60, excluding the chromo domain), fused to YFP (UniProt Q92993); test: co-IP; HEK293 cells cotransfected with a YFP fusion (bait) and a FLAG fusion (prey); anti-GFP antibody and Protein-A/G Plus-Agarose; lysis and wash buffer 5 mM HEPES pH 7.2, 0.5% NP40, 250 mM NaCl, 2 mM EDTA, 10% glycerol; on ice or 4°C; three washes; anti-FLAG Western blot
TIP60−YFP = TIP60−YFP (UniProt Q92993); test: as above
PHF8−YFP (human) [2] = biological target: PHF8−YFP (human) (UniProt Q9UPP1); test: as above
PHF8−YFP (human) [3] = biological target: PHF8−YFP (human) (UniProt Q9UPP1); test: proximity ligation; P-LISA (Duolink II) on fixed HEK293 cells stably transfected with PHF8−YFP; mouse anti-GFP and goat anti-TIP60 primary antibodies; detects molecules less than 30 nm apart; PHF8 shRNA reduced the number of hotspots

binding [1]: binds
binding (TIP60−YFP): binds
Substance: PHF8−FLAG (from UniProt Q9UPP1-2 1-1024)

binding (PHF8−YFP (human) [2]): binds
Substance: TIP60−FLAG (from UniProt Q92993-3 1-546)

binding (PHF8−YFP (human) [3]): binds
Substance: endogenous TIP60 (HEK293 cells) (from UniProt Q92993 1-513)
